# Laboratory results from paper PMC7819943, “Rice protein-binding microarrays: a tool to detect cis-acting elements near promoter regions in rice”.
# Protein sequences, listed by entry. Tags and fused reporters are not part of them.
# UniProt Q0JBA9, entry or part of it: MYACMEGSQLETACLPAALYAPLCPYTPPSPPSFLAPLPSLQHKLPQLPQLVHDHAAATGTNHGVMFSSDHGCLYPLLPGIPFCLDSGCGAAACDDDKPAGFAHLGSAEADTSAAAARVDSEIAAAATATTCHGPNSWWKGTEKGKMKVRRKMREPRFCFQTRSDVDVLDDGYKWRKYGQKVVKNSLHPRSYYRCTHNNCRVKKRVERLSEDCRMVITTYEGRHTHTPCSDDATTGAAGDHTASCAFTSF
# Some of the results follow.
# Biological target: OsWRKY34 (Oryza sativa, UniProt Q0JBA9 1-250)
# Assay: protein-binding microarray (RPBM); PBS, 2% BSA, 51.3 ng/ul salmon testes DNA, 50 uM zinc acetate, 200 nM TF, 25 C, 1 h; high values mean tight binding
# Conditions: protein: recombinant; tags: N-terminal polyhistidine and DsRed monomer fusion (pET32a); label: CyDye5-dUTP incorporated in the synthesized complementary strand; 3' TTTTT single-stranded linker to array surface; dsDNA, one strand shown
# Method in brief: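 Per-feature fluorescence intensity (arbitrary units), read on an Axon 4000B scanner, is the binding signal. Transcription factors carrying an N-terminal polyhistidine tag and DsRed fusion were expressed in E. coli BL21-CodonPlus and purified on Ni–NTA. A custom Agilent array, made double-stranded by primer extension with Cy5-dUTP and blocked with 2% BSA, was incubated with 200 nM protein in PBS, 2% BSA, salmon testes DNA and 50 µM zinc acetate at 25 °C for 1 h and then washed.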
row,Sequence,binding signal
1,GTACGTTGTTTGCCCATCCAAATCTATCCCAGCCTAAATCCGGAGTCACCTAGTGCAG,10700 fluorescence intensity (a.u.)
2,CTCGTTTGATCGTCTCACAATCACAATCTCTAAACATTGTCGGAGTCACCTAGTGCAG,8630 fluorescence intensity (a.u.)
3,TCCATCCCCATCCCCATTCCCCACCGCCGAACTCGGCCCGCGGAGTCACCTAGTGCAG,10500 fluorescence intensity (a.u.)
4,GTGGTGGTGTGTGCTCCTCGTGGCTCGCCGGATCACGTGGCGGAGTCACCTAGTGCAG,8030 fluorescence intensity (a.u.)
5,AGTTCGTTGTTTTTTTTATTATTCTTGGAATCTCCTCTTCCGGAGTCACCTAGTGCAG,8440 fluorescence intensity (a.u.)
6,CCTTGGATTTTAAAACTCCTTCCAGCTATTTTTCCGTTTTCGGAGTCACCTAGTGCAG,8290 fluorescence intensity (a.u.)
7,ATTCTTAAACCCGCCAATGGTTTTCCACGCGCCCACGTTACGGAGTCACCTAGTGCAG,8170 fluorescence intensity (a.u.)
8,ACGTATATTCACAGTTAAATTTGTTATTTTTATTATAATTCGGAGTCACCTAGTGCAG,8650 fluorescence intensity (a.u.)
9,TACAAATCAATGTCGCATTTGGTGTTCGACTGTTCGTTTCCGGAGTCACCTAGTGCAG,8420 fluorescence intensity (a.u.)
10,GATCCGCCTCGGCCGCCGCTCGATCCGCACCCGTACCCGCCGGAGTCACCTAGTGCAG,8180 fluorescence intensity (a.u.)
11,CATGCTCTTTAGTTTGTACTGTGTTCTGCGTTCTTATGTACGGAGTCACCTAGTGCAG,12700 fluorescence intensity (a.u.)
12,ACGTCGTTATCTTTTTTTAAACATGTTTAACCATTCGTCTCGGAGTCACCTAGTGCAG,8850 fluorescence intensity (a.u.)
13,TTGTTGAGATGTAAGTTAAGTGCTTTTGTATTTTTTTTGCCGGAGTCACCTAGTGCAG,8880 fluorescence intensity (a.u.)
14,TCGCCGAAATCCTAGCCGTCACTGTTCACCCTTCCTCGCTCGGAGTCACCTAGTGCAG,12100 fluorescence intensity (a.u.)
15,CTTGCTATTGTACCTGCTCTAATATGTAGCCATCTTTTCTCGGAGTCACCTAGTGCAG,9280 fluorescence intensity (a.u.)
16,TCACCAACGGCGCCACACATTCCGTCTTGTACTACAAGATCGGAGTCACCTAGTGCAG,11600 fluorescence intensity (a.u.)
17,TTGGGTTTCTTGGTTGCTCGAGATCTCTCTCTCTGCAATGCGGAGTCACCTAGTGCAG,11200 fluorescence intensity (a.u.)
18,TCTCTATCGATTCCAATGGTCTGTTGCTGAAAAGGACAATCGGAGTCACCTAGTGCAG,12900 fluorescence intensity (a.u.)
19,ACAATGATAATTCAGCTCGTTGCATGATCTACCTGACATTCGGAGTCACCTAGTGCAG,9080 fluorescence intensity (a.u.)
20,ACCCCAAGTACATCATTAGTATACATCATATTCCATCTTCCGGAGTCACCTAGTGCAG,9680 fluorescence intensity (a.u.)
21,ACATGTGCATGTATTAATTGTGTTTTAGCGTTTCAGATCGCGGAGTCACCTAGTGCAG,8230 fluorescence intensity (a.u.)
22,AGGGAGGAGTACATCTAGTAGTATAGGGGAGAGGGTGGGCCGGAGTCACCTAGTGCAG,11500 fluorescence intensity (a.u.)
23,TCTTTTACACTTCATTTATTTTTTCATGCACCAAGGCTTACGGAGTCACCTAGTGCAG,9810 fluorescence intensity (a.u.)

# Reprinted at random: 2 records from the list
row,Sequence,binding signal
4,GTGGTGGTGTGTGCTCCTCGTGGCTCGCCGGATCACGTGGCGGAGTCACCTAGTGCAG,8030 fluorescence intensity (a.u.)
3,TCCATCCCCATCCCCATTCCCCACCGCCGAACTCGGCCCGCGGAGTCACCTAGTGCAG,10500 fluorescence intensity (a.u.)
